Values quoted from earlier work as cited in patent publication US20150320776A1, “METHOD OF INHIBITING HELICOBACTER PYLORI” (priority 2014, published 2015).
Converted amounts (≈) assume the structure as drawn. Like-named read-outs stand apart in the source and are kept apart here. At least one structure is not confirmed: it was looked up by name or label, or the drawing left a doubt.

Tested on: susceptible H. pylori
Conditions: cited from earlier work

CN(C)[C@@H]1C(O)=C(C(N)=O)C(=O)[C@@]2(O)C(O)=C3C(=O)c4c(O)cccc4[C@@](C)(O)[C@H]3C[C@@H]12 [Tetracycline]
MIC90 (pH 5.5): 0.5 µg/mL (≈ 1.13 µM)
MIC90 (pH 6.0): 0.25 µg/mL (≈ 0.563 µM)
MIC90 (pH 7.5): 0.12 µg/mL (≈ 0.27 µM)
increase of MIC90 (ratio of pH 5.5 to 7.0): four
